Measurements reported in PubChem BioAssay AID1259425 (University of Nebraska Medical Center, 2018)
Aim: 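Find knockdowns that reproduce the gene expression pattern seen when KSR1 is lost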 (primary screen). System: HCT116 human colon cancer cells. Knock-down reagent: siRNA pool against human genes, 50 nM siRNA. Detection: 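After 50 nM siRNA pool, branched-DNA assay measures six marker transcripts per well, minus blank, normalised to the geometric mean of two housekeeping transcripts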. Direction: BNIP3L mRNA: higher = more BNIP3L transcript after knockdown; NDRG1 mRNA: higher = more NDRG1 transcript after knockdown.
The deposit covers about 14,000 reagents; below is an unselected part. Reagents against one gene are numbered here. Not all columns of the deposit are shown. Reagent sequences are not shown. The record does not give: the time to read-out.

no.	gene	pool no.	BNIP3L mRNA, set 1	NDRG1 mRNA, set 1
1	TAGLN3	1	0.17	1.16
2	CWF19L1	1	0.188	0.364
3	IFNA16	1	0.128	0.924
4	C10orf95	1	0.163	0.265
5	DDRGK1	1	0.114	0.253
6	CUTC	1	0.106	0.185
7	ESF1	1	0.19	0.149
8	VSNL1	1	0.0642	0.111
9	SLC6A3	1	0.147	0.329
10	C1QL1	1	0.096	0.0531
11	NARS1	1	0.111	0.361
12	TROAP	1	0.353	0.681
13	FER	1	0.302	0.103
14	TXNDC17	1	0.0761	0.21
15	DHX15	1	0.049	0.158
16	RAD50	1	0.104	0.135
17	MATR3	1	0.045	0.102
18	PRKD3	1	0.254	0.327
19	SMARCB1	1	0.079	0.235
20	ZBTB2	1	0.202	0.691
21	WAC	1	0.827	2.97
22	HLA-DPA1	1	0.0579	0.163
23	POLR1HASP	1	0.0701	0.135
24	RSKR	1	0.151	0.0728
25	BLTP3B	1	0.224	0.2

Not a retest: an excerpt of the list.
no.	gene	pool no.	BNIP3L mRNA, set 1	NDRG1 mRNA, set 1
12	TROAP	1	0.353	0.681
13	FER	1	0.302	0.103
14	TXNDC17	1	0.0761	0.21
15	DHX15	1	0.049	0.158
16	RAD50	1	0.104	0.135
17	MATR3	1	0.045	0.102
18	PRKD3	1	0.254	0.327
19	SMARCB1	1	0.079	0.235
20	ZBTB2	1	0.202	0.691

The list goes on.
no.	gene	pool no.	BNIP3L mRNA, set 1	NDRG1 mRNA, set 1
26	GATAD2A	1	0.0732	0.189
27	TIMMDC1	1	0.0797	0.179
28	RECQL5	1	0.0742	0.19
29	AP3B2	1	0.172	0.644
30	GALK1	1	0.204	0.686
31	MRPS18A	1	0.144	0.317
32	MGA	1	0.11	0.158
33	TECTB	1	0.31	0.548
34	TPSAB1	1	0.185	0.249
35	TPSAB1	2	0.1	0.414
36	CACNA2D3	1	0.159	0.081
37	RWDD2B	1	0.16	0.196
38	NOL7	1	0.205	0.334
39	CSK	1	0.0936	0.396
40	C14orf119	1	0.206	0.238
41	ROR1	1	0.0777	0.194
42	STAG3L1	1	0.0614	0.13
43	TNP1	1	0.0644	0.274
44	MLLT6	1	0.169	0.0563
45	NUDT3	1	0.0616	0.224
46	NR2C2AP	1	0.0407	0.412
47	FMO3	1	0.114	0.316
48	FLT3LG	1	0.0882	0.101
49	ENTREP3	1	0.141	0.181
50	VAV2	1	0.0657	0.357
51	LRP11	1	0.2	0.734
52	BTNL8	1	0.271	0.36
53	TLR3	1	0.0699	0.0888
54	GUCY2F	1	0.116	0.118
55	DCSTAMP	1	0.137	0.2
56	SREBF2	1	0.111	0.143
57	MLNR	1	0.142	0.461
58	UPP1	1	0.131	0.106
59	STRN	1	0.152	0.0849
60	FBXW10	1	0.0716	0.309
61	SPDL1	1	0.118	0.162
62	CSF3	1	0.135	0.279
63	HARS2	1	0.113	0.38
